Measurements: paper PMC3718817 (2013)
No constants are given. Whether binding was seen depends on the method and setting. Binding can be weak; no strength is given.

Amino acid sequences for entries named in this document (tags omitted). A change or cut given only in a name is not applied to a line headed by its entry.
UniProt P32598: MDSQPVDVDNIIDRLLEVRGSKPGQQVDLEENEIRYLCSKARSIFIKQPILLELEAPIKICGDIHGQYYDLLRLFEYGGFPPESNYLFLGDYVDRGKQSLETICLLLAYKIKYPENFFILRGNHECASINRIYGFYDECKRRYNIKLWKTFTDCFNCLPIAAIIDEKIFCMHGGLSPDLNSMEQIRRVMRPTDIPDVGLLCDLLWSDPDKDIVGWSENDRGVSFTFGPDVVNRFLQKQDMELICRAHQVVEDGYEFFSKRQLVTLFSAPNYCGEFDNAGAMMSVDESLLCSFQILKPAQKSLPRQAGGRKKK
UniProt P36047: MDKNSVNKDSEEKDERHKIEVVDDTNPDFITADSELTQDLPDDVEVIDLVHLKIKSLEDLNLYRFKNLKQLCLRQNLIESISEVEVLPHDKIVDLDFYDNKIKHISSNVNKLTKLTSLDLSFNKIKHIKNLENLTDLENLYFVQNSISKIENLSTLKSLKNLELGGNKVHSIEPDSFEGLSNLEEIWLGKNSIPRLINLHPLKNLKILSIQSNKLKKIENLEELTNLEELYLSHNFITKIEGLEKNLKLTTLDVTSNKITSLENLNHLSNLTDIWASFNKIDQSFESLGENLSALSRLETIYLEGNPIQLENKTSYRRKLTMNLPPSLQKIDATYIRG

Target: Gal4(1-147)-Glc7 (S. cerevisiae) (UniProt P32598)
Assay: two-hybrid; PJ69-4A with pAS1-GLC7 (Gal4 DNA-binding domain fusion) and Gal4AD-Sds22 fusions; β-galactosidase activity of three independent transformants

Row | Substance | binding
1 | Gal4AD-Sds22 Δ81–124 (from UniProt P36047) | binds
2 | Gal4AD-Sds22 Δ243–323 (from UniProt P36047) | binds
